Source: PMC4778850
Results are given in words; binding and its absence hold for the method and conditions named. For some of these results: In cells and extracts the contact can be indirect. Tags and fused reporters may be left off the sequences shown.

T1: PID (PINOID), tagged protein expressed in E. coli for the pull-down (Arabidopsis thaliana) (UniProt O64682)
T1 sequence: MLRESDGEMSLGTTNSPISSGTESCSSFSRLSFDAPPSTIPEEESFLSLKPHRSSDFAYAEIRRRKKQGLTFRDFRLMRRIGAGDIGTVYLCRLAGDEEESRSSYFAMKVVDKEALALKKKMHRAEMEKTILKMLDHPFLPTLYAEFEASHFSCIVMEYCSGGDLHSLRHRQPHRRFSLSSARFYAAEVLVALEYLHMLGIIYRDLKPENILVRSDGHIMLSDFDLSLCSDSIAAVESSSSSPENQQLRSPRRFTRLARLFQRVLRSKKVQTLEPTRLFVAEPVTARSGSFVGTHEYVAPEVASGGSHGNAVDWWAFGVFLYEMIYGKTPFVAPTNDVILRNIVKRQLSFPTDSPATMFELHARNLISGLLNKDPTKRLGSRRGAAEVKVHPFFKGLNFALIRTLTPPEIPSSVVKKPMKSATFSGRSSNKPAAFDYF

T2: WAG2-Myc (Arabidopsis thaliana) (UniProt Q9LUL2)
T2 sequence: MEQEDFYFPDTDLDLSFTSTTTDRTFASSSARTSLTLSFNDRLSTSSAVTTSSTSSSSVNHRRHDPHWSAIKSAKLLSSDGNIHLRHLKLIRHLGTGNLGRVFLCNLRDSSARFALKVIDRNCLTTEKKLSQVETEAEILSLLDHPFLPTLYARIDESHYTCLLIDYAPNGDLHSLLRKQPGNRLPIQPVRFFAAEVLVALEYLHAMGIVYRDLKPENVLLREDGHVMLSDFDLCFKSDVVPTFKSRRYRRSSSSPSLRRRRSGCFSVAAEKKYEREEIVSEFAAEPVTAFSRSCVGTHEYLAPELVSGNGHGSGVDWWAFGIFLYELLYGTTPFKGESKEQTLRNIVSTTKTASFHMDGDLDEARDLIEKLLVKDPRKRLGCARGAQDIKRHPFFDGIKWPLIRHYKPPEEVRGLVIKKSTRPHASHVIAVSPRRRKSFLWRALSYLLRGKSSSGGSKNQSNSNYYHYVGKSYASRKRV

T3: WAG1-Myc (Arabidopsis thaliana) (UniProt Q9C8M5)
T3 sequence: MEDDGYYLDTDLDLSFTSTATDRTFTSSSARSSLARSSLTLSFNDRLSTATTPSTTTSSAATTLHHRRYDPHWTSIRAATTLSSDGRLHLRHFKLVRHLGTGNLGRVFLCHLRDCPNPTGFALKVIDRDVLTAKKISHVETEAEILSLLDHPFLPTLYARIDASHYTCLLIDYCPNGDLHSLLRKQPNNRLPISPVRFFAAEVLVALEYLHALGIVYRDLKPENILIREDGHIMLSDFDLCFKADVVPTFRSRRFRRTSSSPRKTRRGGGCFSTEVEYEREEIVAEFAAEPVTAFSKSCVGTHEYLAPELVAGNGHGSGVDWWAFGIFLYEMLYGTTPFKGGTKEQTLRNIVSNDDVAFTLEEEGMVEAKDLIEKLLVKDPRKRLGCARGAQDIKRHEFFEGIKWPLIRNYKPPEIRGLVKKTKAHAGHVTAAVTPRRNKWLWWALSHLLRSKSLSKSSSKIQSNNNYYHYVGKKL

T4: PID-Myc (Arabidopsis thaliana) (UniProt O64682)
T4 sequence: T1 sequence

B1: NCP1/AtMOB1A, tagged protein expressed in E. coli for the pull-down (protein, UniProt Q9FHI1 1-215)
chain: MSLFGLGRNQKTFRPKKSAPSGSKGAQLRKHIDATLGSGNLREAVRLPPGEDANEWLAVNTVDFFNQVNLLYGTLTEFCTPDNCPTMTAGPKYEYRWADGVQIKKPIEVSAPKYVEYLMDWIETQLDDETLFPQRLGAPFPQNFKDVVKTIFKRLFRVYAHIYHSHFQKIVSLKEEAHLNTCFKHFILFTHEFGLIDKKELAPLQELIESIISPY
B2: YFP-NCP1 (protein, UniProt Q9FHI1 1-215)
chain: B1 chain

How the values were obtained:
[1] = target: T1, PID (PINOID), tagged protein expressed in E. coli for the pull-down (Arabidopsis thaliana); test: pull-down; His-tagged and GST-tagged proteins from E. coli BL21; Glutathione Sepharose 4B or Ni-NTA agarose (His beads); bound proteins eluted and blotted with anti-GST and anti-HIS; both purified
[2] = target: T2, WAG2-Myc (Arabidopsis thaliana); test: co-IP; YFP-NCP1 co-expressed with PID-Myc or WAGs-Myc in N. benthamiana leaves; extract incubated 3 hr with anti-Myc-tag mAb-agarose in IP buffer (20 mM Tris-HCl pH 7.5, 150 mM NaCl, 0.1% Triton X-100); blots with anti-Myc or anti-GFP
[3] = target: T3, WAG1-Myc (Arabidopsis thaliana); test: as above
[4] = target: T4, PID-Myc (Arabidopsis thaliana); test: as above

Binder | binding [1] | binding [2] | binding [3] | binding [4]
B1 | no binding |  |  | 
B2 |  | no binding | no binding | no binding
